Patent publication US20220226340A1, “CASEIN KINASE 1 INHIBITORS FOR USE IN THE TREATMENT OF DISEASES RELATED TO DUX4 EXPRESSION SUCH AS MUSCULAR DYSTROPHY AND CANCER” (Facio Intellectual Property B.V., priority 2019, published 2022)

System: primary FSHD cells
Test: fusion index (myotube fusion) readout of the high-content assay in primary FSHD cells
Type: cell-based, human
Details: 72 h treatment, compound present during whole differentiation
From the text: A quantitative assay readout was developed based on script-based image analysis. […] To analyse the images, an automated script was developed, enabling the detection of nuclei, myotube borders and DUX4 signals, with the script also detecting artefacts to reduce false positive signals. The script enabled multiple validated readouts including the number of DUX4 positive nuclei and nuclei clusters, the fusion index, myotube area, myotube width and myotube skeleton length (see FIG. 2). Additionally, the total nuclei count was included as a measure of cell loss or compound toxicity.
Compounds are administered either 15 h before fixation, resembling the original screening protocol, or 72 h before fixation (grey arrow). In the latter case, compounds are present during the whole differentiation process.

## COc1ccc(CC(C)NCC(O)c2ccc(O)c(NC=O)c2)cc1 (stereo not shown) [formoterol]
  effect on fusion index / myotube fusion: no myotube formation can be observed
